These are yes or no findings as the source states them, for the method shown. Binding seen in cells or lysates may run through a third protein. A yes stands for co-enrichment or nearness to the bait. Other partners may have been found. For some assays here: Tags and fused reporters may be left off the sequences shown. Each block holds one binder with its values, some of them ahead of it.
Tests used:
Test in all cases: affinity purification with mass spectrometry; 3xFLAG-tagged catalytic subunit (WT or ΔL) transfected in FreeStyle 293F cells; FLAG M2 affinity gel, 3 h at 4 °C; lysis and wash buffer 50 mM Tris pH 7.5, 500 mM NaCl, 0.5% Triton X-100; eluted with 3XFLAG peptide; label-free quantitative LC-MS/MS on unique peptides, three replicates
[1] = target: 3xFLAG-tagged PP2Acβ, wild type (human) (UniProt P62714)
[2] = target: 3xFLAG-tagged PP2Acβ ΔL mutant (Leu 309 deleted) (human) (UniProt P62714)
[3] = target: T1, 3xFLAG-tagged PP6c, wild type (human) (UniProt O00743)
T1 sequence: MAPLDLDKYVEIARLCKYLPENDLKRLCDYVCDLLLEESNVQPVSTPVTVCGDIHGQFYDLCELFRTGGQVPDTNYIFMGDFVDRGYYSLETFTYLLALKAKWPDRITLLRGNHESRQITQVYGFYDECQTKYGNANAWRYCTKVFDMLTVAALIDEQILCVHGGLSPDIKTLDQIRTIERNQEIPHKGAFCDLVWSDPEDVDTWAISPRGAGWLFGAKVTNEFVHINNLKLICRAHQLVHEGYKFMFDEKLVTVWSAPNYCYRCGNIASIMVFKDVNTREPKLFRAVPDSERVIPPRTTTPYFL

Amino acid sequences for entries named in this document (tags omitted). A change or cut given only in a name is not applied to a line headed by its entry. Chains listed by the source or under a name are the forms on record and can include a tag or linker. Residues count along the entry.
UniProt P62714: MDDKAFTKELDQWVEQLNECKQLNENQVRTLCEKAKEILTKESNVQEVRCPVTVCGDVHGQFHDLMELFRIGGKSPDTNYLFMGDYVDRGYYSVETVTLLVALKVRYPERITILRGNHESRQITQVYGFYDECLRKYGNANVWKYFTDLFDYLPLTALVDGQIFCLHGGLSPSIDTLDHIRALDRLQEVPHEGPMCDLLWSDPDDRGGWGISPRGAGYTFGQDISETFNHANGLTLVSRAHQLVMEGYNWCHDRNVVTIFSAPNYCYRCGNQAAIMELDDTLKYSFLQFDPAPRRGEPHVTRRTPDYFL
3xFLAG-tagged PP2Acβ ΔL mutant (Leu 309 deleted): residues 1-308 of P62714

[4] = target: T2, 3xFLAG-tagged PP6c ΔL mutant (Leu 305 deleted) (human) (UniProt O00743)
T2 sequence: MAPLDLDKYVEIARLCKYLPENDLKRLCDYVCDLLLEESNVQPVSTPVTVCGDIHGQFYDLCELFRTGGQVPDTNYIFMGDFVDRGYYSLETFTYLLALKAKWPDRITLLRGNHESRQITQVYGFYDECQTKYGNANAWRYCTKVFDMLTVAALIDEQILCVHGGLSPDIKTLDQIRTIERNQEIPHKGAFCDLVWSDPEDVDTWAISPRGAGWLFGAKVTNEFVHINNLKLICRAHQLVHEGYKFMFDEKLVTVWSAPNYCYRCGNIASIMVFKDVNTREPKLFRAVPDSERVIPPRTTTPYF

[5] = target: T3, 3xFLAG-tagged PP4c, wild type (human) (UniProt P60510)
T3 sequence: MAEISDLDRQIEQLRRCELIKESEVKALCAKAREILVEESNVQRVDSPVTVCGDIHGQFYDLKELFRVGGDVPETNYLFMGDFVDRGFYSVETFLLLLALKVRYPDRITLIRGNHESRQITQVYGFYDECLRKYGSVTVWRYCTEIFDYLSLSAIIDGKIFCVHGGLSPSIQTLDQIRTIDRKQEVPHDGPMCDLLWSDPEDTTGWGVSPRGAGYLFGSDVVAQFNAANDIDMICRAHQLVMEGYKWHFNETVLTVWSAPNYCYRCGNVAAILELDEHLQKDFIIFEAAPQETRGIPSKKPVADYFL

binding [1]: binds | binding [2]: binds
B1: PR72/PR130, PP2A regulatory subunit of the B72 family (protein, UniProt Q06190 1-1150)
chain: MAATYRLVVSTVNHYSSVVIDRRFEQAIHYCTGTCHTFTHGIDCIVVHHSVCADLLHIPVSQFKDADLNSMFLPHENGLSSAEGDYPQQAFTGIPRVKRGSTFQNTYNLKDIAGEAISFASGKIKEFSFEKLKNSNHAAYRKGRKVKSDSFNRRSVDLDLLCGHYNNDGNAPSFGLLRSSSVEEKPLSHRNSLDTNLTSMFLQNFSEEDLVTQILEKHKIDNFSSGTDIKMCLDILLKCSEDLKKCTDIIKQCIKKKSGSSISEGSGNDTISSSETVYMNVMTRLASYLKKLPFEFMQSGNNEALDLTELISNMPSLQLTPFSPVFGTEQPPKYEDVVQLSASDSGRFQTIELQNDKPNSRKMDTVQSIPNNSTNSLYNLEVNDPRTLKAVQVQSQSLTMNPLENVSSDDLMETLYIEEESDGKKALDKGQKTENGPSHELLKVNEHRAEFPEHATHLKKCPTPMQNEIGKIFEKSFVNLPKEDCKSKVSKFEEGDQRDFTNSSSQEEIDKLLMDLESFSQKMETSLREPLAKGKNSNFLNSHSQLTGQTLVDLEPKSKVSSPIEKVSPSCLTRIIETNGHKIEEEDRALLLRILESIEDFAQELVECKSSRGSLSQEKEMMQILQETLTTSSQANLSVCRSPVGDKAKDTTSAVLIQQTPEVIKIQNKPEKKPGTPLPPPATSPSSPRPLSPVPHVNNVVNAPLSINIPRFYFPEGLPDTCSNHEQTLSRIETAFMDIEEQKADIYEMGKIAKVCGCPLYWKAPMFRAAGGEKTGFVTAQSFIAMWRKLLNNHHDDASKFICLLAKPNCSSLEQEDFIPLLQDVVDTHPGLTFLKDAPEFHSRYITTVIQRIFYTVNRSWSGKITSTEIRKSNFLQTLALLEEEEDINQITDYFSYEHFYVIYCKFWELDTDHDLYISQADLSRYNDQASSSRIIERIFSGAVTRGKTIQKEGRMSYADFVWFLISEEDKRNPTSIEYWFRCMDVDGDGVLSMYELEYFYEEQCERMEAMGIEPLPFHDLLCQMLDLVKPAVDGKITLRDLKRCRMAHIFYDTFFNLEKYLDHEQRDPFAVQKDVENDGPEPSDWDRFAAEEYETLVAEESAQAQFQEGFEDYETDEPASPSEFGNKSNKILSASLPEKCGKLQSVDEE

binding [3]: binds | binding [4]: binds
B2: ANKRD52, Ankyrin repeat subunit of PP6 (protein, UniProt Q8NB46 1-1076)
chain: MGILSITDQPPLVQAIFSRDVEEVRSLLSQKENINVLDQERRTPLHAAAYVGDVPILQLLLMSGANVNAKDTLWLTPLHRAAASRNEKVLGLLLAHSADVNARDKLWQTPLHVAAANRATKCAEALAPLLSSLNVADRSGRSALHHAVHSGHLETVNLLLNKGASLNVCDKKERQPLHWAAFLGHLEVLKLLVARGADLGCKDRKGYGLLHTAAASGQIEVVKYLLRMGAEIDEPNAFGNTALHIACYLGQDAVAIELVNAGANVNQPNDKGFTPLHVAAVSTNGALCLELLVNNGADVNYQSKEGKSPLHMAAIHGRFTRSQILIQNGSEIDCADKFGNTPLHVAARYGHELLISTLMTNGADTARRGIHDMFPLHLAVLFGFSDCCRKLLSSGQLYSIVSSLSNEHVLSAGFDINTPDNLGRTCLHAAASGGNVECLNLLLSSGADLRRRDKFGRTPLHYAAANGSYQCAVTLVTAGAGVNEADCKGCSPLHYAAASDTYRRAEPHTPSSHDAEEDEPLKESRRKEAFFCLEFLLDNGADPSLRDRQGYTAVHYAAAYGNRQNLELLLEMSFNCLEDVESTIPVSPLHLAAYNGHCEALKTLAETLVNLDVRDHKGRTALFLATERGSTECVEVLTAHGASALIKERKRKWTPLHAAAASGHTDSLHLLIDSGERADITDVMDAYGQTPLMLAIMNGHVDCVHLLLEKGSTADAADLRGRTALHRGAVTGCEDCLAALLDHDAFVLCRDFKGRTPIHLASACGHTAVLRTLLQAALSTDPLDAGVDYSGYSPMHWASYTGHEDCLELLLEHSPFSYLEGNPFTPLHCAVINNQDSTTEMLLGALGAKIVNSRDAKGRTPLHAAAFADNVSGLRMLLQHQAEVNATDHTGRTALMTAAENGQTAAVEFLLYRGKADLTVLDENKNTALHLACSKGHEKCALMILAETQDLGLINATNSALQMPLHIAARNGLASVVQALLSHGATVLAVDEEGHTPALACAPNKDVADCLALILSTMKPFPPKDAVSPFSFSLLKNCSIAAAKTVGGCGALPHGASCPYSQERPGAIGLDGCYSE

binding [5]: binds
B3: PP4R4, PP4 regulatory subunit (protein, UniProt Q6NUP7 1-873)
chain: MHPPPPAAAMDFSQNSLFGYMEDLQELTIIERPVRRSLKTPEEIERLTVDEDLSDIERAVYLLSAGQDVQGTSVIANLPFLMRQNPTETLRRVLPKVREALHVAGVEMQLTAAMSFLTILQDESVSIHAYTHSFLQVILLHLEHRDTGVSNAWLETLLSVIEVLPKETLRHEILNPLVSKAQLSQTVQSRLVSCKILGKLTNKFDAHTIKREILPLVKSLCQDVEYEVRSCMCRQLENIAQGIGTELTKSVVLPELIELSRDEGSSVRLAAFETLVNLLDIFDTDDRSQTILPLVKSFCEKSFKADESILISLSFHLGKLCHGLYGIFTPDQHLRFLEFYKKLCTLGLQQENGHNENQIPPQILEQEKKYISVRKNCAYNFPAMIVFVDPKNFHMELYSTFFCLCHDPEVPVRYTIAICFYEVSKLLNSGVYLIHKELITLLQDESLEVLDALIDHLPEILELMSTGGESSVQENKLSSLPDLIPALTAAEQRAAASLKWRTHEKLLQKYACLPHVISSDQIYYRFLQRMFTIMMTNNVLPVQKAASRTLCIFLRYNRKQEQRHEVIQKLIEQLGQGKSYWNRLRFLDTCEFIIEIFSKSFFCKYFFLPAIELTHDPVANVRMKLCYLLPKVKSTLKIPADKHLLQQLEMCVRKLLCQEKDKDVLAIVKRTVLELDRMEMSMDAFQKKFYEKDLLDQEKEREELLLLEMEQLEKEKQQNDGRPMSDKMFEKKRRDTKTPTQSLPKNIPISVPGPSSVTPSTSKEIKKSKLIRSQSFNNQAFHAKYGNLEKCASKSSTTGYTTSVSGLGKTSVLSLADDSFRTRNASSVPSSFSPNTPLPSTSRGTGNSVDPKSSGSKDTQPRKATLKSRKSNP

binding [5]: binds
B4: PP4R2, PP4 regulatory subunit (protein, UniProt Q9NY27 1-417)
chain: MDVERLQEALKDFEKRGKKEVCPVLDQFLCHVAKTGETMIQWSQFKGYFIFKLEKVMDDFRTSAPEPRGPPNPNVEYIPFDEMKERILKIVTGFNGIPFTIQRLCELLTDPRRNYTGTDKFLRGVEKNVMVVSCVYPSSEKNNSNSLNRMNGVMFPGNSPSYTERSNINGPGTPRPLNRPKVSLSAPMTTNGLPESTDSKEANLQQNEEKNHSDSSTSESEVSSVSPLKNKHPDEDAVEAEGHEVKRLRFDKEGEVRETASQTTSSEISSVMVGETEASSSSQDKDKDSRCTRQHCTEEDEEEDEEEEEESFMTSREMIPERKNQEKESDDALTVNEETSEENNQMEESDVSQAEKDLLHSEGSENEGPVSSSSSDCRETEELVGSNSSKTGEILSESSMENDDEATEVTDEPMEQD

binding [1]: binds | binding [2]: binds
B5: PR48, PP2A regulatory subunit of the B72 family (protein, UniProt Q9Y5P8 1-575)
chain: MPPGKVLQPVLKMKVDELFLYWLSEASTQRMLQDCLRRIKAPGRDQPTPGDGEQPGAWPTAPLAAPRPSGLEPPGTPGPGPALPLGAASSPRNAPHVRGTRRSAGTRVVQTRKEEPLPPATSQSIPTFYFPRGRPQDSVNVDAVISKIESTFARFPHERATMDDMGLVAKACGCPLYWKGPLFYGAGGERTGSVSVHKFVAMWRKILQNCHDDAAKFVHLLMSPGCNYLVQEDFVPFLQDVVNTHPGLSFLKEASEFHSRYITTVIQRIFYAVNRSWSGRITCAELRRSSFLQNVALLEEEADINQLTEFFSYEHFYVIYCKFWELDTDHDLLIDADDLARHNDHALSTKMIDRIFSGAVTRGRKVQKEGKISYADFVWFLISEEDKKTPTSIEYWFRCMDLDGDGALSMFELEYFYEEQCRRLDSMAIEALPFQDCLCQMLDLVKPRTEGKITLQDLKRCKLANVFFDTFFNIEKYLDHEQKEQISLLRDGDSGGPELSDWEKYAAEEYDILVAEETAGEPWEDGFEAELSPVEQKLSALRSPLAQRPFFEAPSPLGAVDLYEYACGDEDLEPL

From article PMC8630191
